According to paper doi:10.1101/2023.11.08.566199:
No constants are given. Whether binding was seen depends on the method and setting. Binding seen in cells or lysates may run through a third protein. A yes stands for co-enrichment or nearness to the bait. Other partners may have been found.

Protein sequences, listed by entry. Tags and fused reporters are not part of them.
UniProt O15085: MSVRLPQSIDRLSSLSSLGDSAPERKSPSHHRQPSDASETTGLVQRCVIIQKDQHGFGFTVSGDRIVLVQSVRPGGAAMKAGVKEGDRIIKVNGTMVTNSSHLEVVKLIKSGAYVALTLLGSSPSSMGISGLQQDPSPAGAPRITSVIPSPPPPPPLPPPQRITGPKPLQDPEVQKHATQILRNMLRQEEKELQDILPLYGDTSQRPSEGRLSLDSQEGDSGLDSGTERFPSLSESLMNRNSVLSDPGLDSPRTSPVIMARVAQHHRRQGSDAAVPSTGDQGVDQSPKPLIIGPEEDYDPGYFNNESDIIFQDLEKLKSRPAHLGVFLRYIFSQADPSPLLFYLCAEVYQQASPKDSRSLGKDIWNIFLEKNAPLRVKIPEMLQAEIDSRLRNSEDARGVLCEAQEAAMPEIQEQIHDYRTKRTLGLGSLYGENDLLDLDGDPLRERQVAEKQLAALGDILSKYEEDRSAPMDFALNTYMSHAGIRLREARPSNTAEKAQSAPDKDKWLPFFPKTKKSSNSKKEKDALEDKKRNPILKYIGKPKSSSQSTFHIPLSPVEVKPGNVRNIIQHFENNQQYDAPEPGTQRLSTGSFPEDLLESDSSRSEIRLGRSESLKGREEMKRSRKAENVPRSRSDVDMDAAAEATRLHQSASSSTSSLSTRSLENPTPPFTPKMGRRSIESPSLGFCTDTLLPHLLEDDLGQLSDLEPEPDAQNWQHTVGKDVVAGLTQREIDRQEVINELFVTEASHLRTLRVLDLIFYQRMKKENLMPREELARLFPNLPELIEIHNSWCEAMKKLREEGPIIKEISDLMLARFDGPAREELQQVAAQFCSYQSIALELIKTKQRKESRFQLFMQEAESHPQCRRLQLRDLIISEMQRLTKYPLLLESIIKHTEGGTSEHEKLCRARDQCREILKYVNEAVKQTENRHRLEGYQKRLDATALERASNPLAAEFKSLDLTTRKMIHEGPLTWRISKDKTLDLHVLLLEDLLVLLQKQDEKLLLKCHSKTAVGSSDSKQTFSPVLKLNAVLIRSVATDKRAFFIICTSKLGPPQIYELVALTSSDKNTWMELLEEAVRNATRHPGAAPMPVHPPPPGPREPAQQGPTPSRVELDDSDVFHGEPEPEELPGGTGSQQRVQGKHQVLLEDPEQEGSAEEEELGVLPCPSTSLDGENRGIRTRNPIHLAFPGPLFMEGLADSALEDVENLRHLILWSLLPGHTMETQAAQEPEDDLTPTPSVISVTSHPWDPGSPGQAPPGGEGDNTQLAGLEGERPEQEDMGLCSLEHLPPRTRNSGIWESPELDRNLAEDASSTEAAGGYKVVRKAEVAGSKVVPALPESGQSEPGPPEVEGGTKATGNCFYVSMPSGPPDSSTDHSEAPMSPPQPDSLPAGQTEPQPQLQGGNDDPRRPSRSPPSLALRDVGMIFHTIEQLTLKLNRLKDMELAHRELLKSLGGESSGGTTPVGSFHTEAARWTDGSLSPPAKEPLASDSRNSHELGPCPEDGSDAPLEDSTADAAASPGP

Target: V5- and TurboID-fused Solo (UniProt Q8TER5)
Assay: proximity labelling

“PDZ-RhoGEF (endogenous, DLD-1 cells) (from UniProt O15085 1-1522)” was tested, and the binding was “binds”.
